Data taken from article PMC6282339.
These are yes or no findings as the source states them, for the method shown. Binding seen in cells or lysates may run through a third protein. A result given as binding can be weak or reduced; the word gives no strength. Tags and fused reporters may be left off the sequences shown.

T1: SKAP1 (SKAP-55), wild type, Flag-tagged or GFP-tagged copy (UniProt Q86WV1)
T1 sequence: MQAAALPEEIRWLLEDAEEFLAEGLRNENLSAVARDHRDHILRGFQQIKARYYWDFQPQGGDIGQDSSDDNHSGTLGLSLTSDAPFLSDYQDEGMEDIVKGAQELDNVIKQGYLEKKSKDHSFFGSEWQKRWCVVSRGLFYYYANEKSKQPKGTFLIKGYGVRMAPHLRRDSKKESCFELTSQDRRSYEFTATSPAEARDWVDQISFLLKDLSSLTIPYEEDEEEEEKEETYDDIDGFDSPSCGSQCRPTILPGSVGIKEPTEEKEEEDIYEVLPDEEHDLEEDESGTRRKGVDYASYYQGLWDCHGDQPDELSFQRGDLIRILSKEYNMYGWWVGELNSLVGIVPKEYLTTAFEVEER

B1: SKAP1 (SKAP-55), wild type, Flag-tagged or GFP-tagged copy (protein, UniProt Q86WV1 1-359)
chain: T1 sequence

Columns and labels:
[1] = target: T1, SKAP1 (SKAP-55), wild type, Flag-tagged or GFP-tagged copy; assay: co-IP; GFP-SKAP1, Flag-SKAP1 (wild type or A17/F20/L21 mutant) and V5-RapL co-expressed in 293T cells; precipitation with anti-Flag, anti-GFP or anti-V5
[2] = target: Flag-tagged SKAP1 with mutations in residues A17/F20/L21 (UniProt Q86WV1); assay: co-IP; Combinations of Flag- and GFP-tagged SKAP1 expressed in 293T cells; anti-Flag precipitation; blotted with anti-SKAP1
[3] = target: V5-tagged RapL; assay: co-IP; GFP-SKAP1, Flag-SKAP1 (wild type or A17/F20/L21 mutant) and V5-RapL co-expressed in 293T cells; precipitation with anti-Flag, anti-GFP or anti-V5

Row | Molecule | binding [1] | binding [2] | binding [3]
1 | V5-tagged RapL | binds weakly |  | 
2 | B1 |  | binds | binds
